Assay results published in US10159726B2, “Peptides, combination of peptides and scaffolds for use in immunotherapeutic treatment of various cancers” (Immatics Biotechnologies GmbH, priority 2015, dated 2018).
For some assays here: Expression values are those of the mRNA of the gene that encodes the peptide; a gene is named only where it was looked up.

Legend:
[1] = test system: HLA-A*24 molecules of primary tumors; experiment: Identification and relative LC-MS quantitation of HLA-A*24 tumor-associated peptides presented on tissue samples (XPRESIDENT presentation profiles); parameters: species or system human; conditions: for ENTITIES: Table 9A: selected HLA-A*24-binding tumor-associated peptides, cancer entities on which the peptide was found presented; for Peptide Presentation on cancer entities: Table 9B: selected HLA-A*24 peptides, presentation on additional cancer entities
[2] = test system: source genes of selected peptides; experiment: Expression profiling of source genes by in-house RNAseq, tumor vs normal tissues (target coverage); parameters: species or system human; conditions: for Target coverage for source genes of selected peptides, GBC_CCC (N = 10): gallbladder adenocarcinoma and cholangiocarcinoma; for Target coverage for source genes of selected peptides, GBC_CCC (N = 10) / Target coverage for source genes of selected peptides, GC (N = 11) / Target coverage for source genes of selected peptides, HNSCC (N = 10) / Target coverage for source genes of selected peptides, MEL (N = 10) / Target coverage for source genes of selected peptides, NHL (N = 10) / Target coverage for source genes of selected peptides, PCA (n = 10) / Target coverage for source genes of selected peptides, UBC (N = 10) / Target coverage for source genes of selected peptides, UTC (N = 10): share of tumors with more than 1.5-fold higher expression than the highest-expressing relevant normal tissue, in-house RNAseq; for Target coverage for source genes of selected peptides, GC (N = 11): gastric cancer; for Target coverage for source genes of selected peptides, HNSCC (N = 10): head and neck small cell carcinoma; for Target coverage for source genes of selected peptides, MEL (N = 10): melanoma; for Target coverage for source genes of selected peptides, NHL (N = 10): non-Hodgkin lymphoma; for Target coverage for source genes of selected peptides, PCA (n = 10): prostate cancer and benign prostate hyperplasia; for Target coverage for source genes of selected peptides, UBC (N = 10): urinary bladder cancer; for Target coverage for source genes of selected peptides, UTC (N = 10): uterine cancer; for Target coverage, over-expression of source gene, AML: AML (N = 7); for Target coverage, over-expression of source gene, AML / Target coverage, over-expression of source gene, BRCA / Target coverage, over-expression of source gene, CLL / Target coverage, over-expression of source gene, CRC / Target coverage, over-expression of source gene, GB / Target coverage, over-expression of source gene, HCC / Target coverage, over-expression of source gene, OC / Target coverage, over-expression of source gene, OSCAR / Target coverage, over-expression of source gene, PC / Target coverage, over-expression of source gene, RCC / Target coverage, over-expression of source gene, SCLC / Target coverage, over-expression of source gene, pNSCLC: share of tumors with more than 1.5-fold higher expression than highest relevant normal tissue, in-house RNASeq; for Target coverage, over-expression of source gene, BRCA: BRCA (N = 10); for Target coverage, over-expression of source gene, CLL: CLL (N = 10); for Target coverage, over-expression of source gene, CRC: CRC (N = 20); for Target coverage, over-expression of source gene, GB: GB (N = 24); for Target coverage, over-expression of source gene, HCC: HCC (N = 15); for Target coverage, over-expression of source gene, OC: OC (N = 12); for Target coverage, over-expression of source gene, OSCAR: OSCAR (N = 11); for Target coverage, over-expression of source gene, PC: PC (N = 26); for Target coverage, over-expression of source gene, RCC: RCC (N = 10); for Target coverage, over-expression of source gene, SCLC: SCLC (N = 10); for Target coverage, over-expression of source gene, pNSCLC: pNSCLC (N = 11)

347: peptide found in CSNK2A2 (gene looked up) (VYAEVNSL; listed as Homo sapiens) [compound 347]
ENTITIES [1]: GB, NSCLC, GC | Target coverage for source genes of selected peptides, GBC_CCC (N = 10) [2]: I (<19% over-expression = I) | Target coverage for source genes of selected peptides, GC (N = 11) [2]: I (<19% over-expression = I) | Target coverage for source genes of selected peptides, HNSCC (N = 10) [2]: I (<19% over-expression = I) | Target coverage for source genes of selected peptides, MEL (N = 10) [2]: I (<19% over-expression = I) | Target coverage for source genes of selected peptides, NHL (N = 10) [2]: I (<19% over-expression = I) | Target coverage for source genes of selected peptides, PCA (n = 10) [2]: I (<19% over-expression = I) | Target coverage for source genes of selected peptides, UBC (N = 10) [2]: I (<19% over-expression = I) | Target coverage for source genes of selected peptides, UTC (N = 10) [2]: I (<19% over-expression = I)

350: peptide found in GTPBP10 (gene looked up) (KYGNFIDKL; listed as Homo sapiens) [compound 350]
ENTITIES [1]: NSCLC, GC, HCC | Peptide Presentation on cancer entities [1]: PCA | Target coverage, over-expression of source gene, AML [2]: I (<19% over-expression = I) | Target coverage, over-expression of source gene, BRCA [2]: I (<19% over-expression = I) | Target coverage, over-expression of source gene, CLL [2]: I (<19% over-expression = I) | Target coverage, over-expression of source gene, CRC [2]: I (<19% over-expression = I) | Target coverage, over-expression of source gene, GB [2]: I (<19% over-expression = I) | Target coverage, over-expression of source gene, HCC [2]: I (<19% over-expression = I) | Target coverage, over-expression of source gene, OC [2]: II (20-49% = II) | Target coverage, over-expression of source gene, OSCAR [2]: I (<19% over-expression = I) | Target coverage, over-expression of source gene, PC [2]: I (<19% over-expression = I) | Target coverage, over-expression of source gene, RCC [2]: I (<19% over-expression = I) | Target coverage, over-expression of source gene, SCLC [2]: I (<19% over-expression = I) | Target coverage for source genes of selected peptides, GBC_CCC (N = 10) [2]: I (<19% over-expression = I) | Target coverage for source genes of selected peptides, GC (N = 11) [2]: I (<19% over-expression = I) | Target coverage for source genes of selected peptides, HNSCC (N = 10) [2]: I (<19% over-expression = I) | Target coverage for source genes of selected peptides, MEL (N = 10) [2]: I (<19% over-expression = I) | Target coverage for source genes of selected peptides, NHL (N = 10) [2]: I (<19% over-expression = I) | Target coverage, over-expression of source gene, pNSCLC [2]: I (<19% over-expression = I) | Target coverage for source genes of selected peptides, PCA (n = 10) [2]: I (<19% over-expression = I) | Target coverage for source genes of selected peptides, UBC (N = 10) [2]: I (<19% over-expression = I) | Target coverage for source genes of selected peptides, UTC (N = 10) [2]: I (<19% over-expression = I)

204: peptide found in ARID2 (gene looked up) (EYLSTCSKL; listed as Homo sapiens) [compound 204]
ENTITIES [1]: NSCLC, HCC | Peptide Presentation on cancer entities [1]: PCA | Target coverage, over-expression of source gene, AML [2]: II (20-49% = II) | Target coverage, over-expression of source gene, BRCA [2]: II (20-49% = II) | Target coverage, over-expression of source gene, CLL [2]: I (<19% over-expression = I) | Target coverage, over-expression of source gene, CRC [2]: I (<19% over-expression = I) | Target coverage, over-expression of source gene, GB [2]: I (<19% over-expression = I) | Target coverage, over-expression of source gene, HCC [2]: I (<19% over-expression = I) | Target coverage, over-expression of source gene, OC [2]: II (20-49% = II) | Target coverage, over-expression of source gene, OSCAR [2]: I (<19% over-expression = I) | Target coverage, over-expression of source gene, PC [2]: I (<19% over-expression = I) | Target coverage, over-expression of source gene, RCC [2]: I (<19% over-expression = I) | Target coverage, over-expression of source gene, SCLC [2]: III (50-69% = III) | Target coverage for source genes of selected peptides, GBC_CCC (N = 10) [2]: I (<19% over-expression = I) | Target coverage for source genes of selected peptides, GC (N = 11) [2]: I (<19% over-expression = I) | Target coverage for source genes of selected peptides, HNSCC (N = 10) [2]: II (20-49% = II) | Target coverage for source genes of selected peptides, MEL (N = 10) [2]: I (<19% over-expression = I) | Target coverage for source genes of selected peptides, NHL (N = 10) [2]: II (20-49% = II) | Target coverage, over-expression of source gene, pNSCLC [2]: I (<19% over-expression = I) | Target coverage for source genes of selected peptides, PCA (n = 10) [2]: II (20-49% = II) | Target coverage for source genes of selected peptides, UBC (N = 10) [2]: I (<19% over-expression = I) | Target coverage for source genes of selected peptides, UTC (N = 10) [2]: IV (>70% = IV)

287: peptide found in VANGL1 (gene looked up) (IYNPNLLTASKF; listed as Homo sapiens) [compound 287]
Peptide Presentation on cancer entities [1]: NSCLC | Target coverage, over-expression of source gene, AML [2]: I (<19% over-expression = I) | Target coverage, over-expression of source gene, BRCA [2]: III (50-69% = III) | Target coverage, over-expression of source gene, CLL [2]: I (<19% over-expression = I) | Target coverage, over-expression of source gene, CRC [2]: I (<19% over-expression = I) | Target coverage, over-expression of source gene, GB [2]: I (<19% over-expression = I) | Target coverage, over-expression of source gene, HCC [2]: I (<19% over-expression = I) | Target coverage, over-expression of source gene, OC [2]: III (50-69% = III) | Target coverage, over-expression of source gene, OSCAR [2]: III (50-69% = III) | Target coverage, over-expression of source gene, PC [2]: I (<19% over-expression = I) | Target coverage, over-expression of source gene, RCC [2]: I (<19% over-expression = I) | Target coverage, over-expression of source gene, SCLC [2]: I (<19% over-expression = I) | Target coverage, over-expression of source gene, pNSCLC [2]: I (<19% over-expression = I)

220: peptide found in DCLRE1C (gene looked up) (SYSEIKDFL; listed as Homo sapiens) [compound 220]
Peptide Presentation on cancer entities [1]: NSCLC | Target coverage, over-expression of source gene, AML [2]: I (<19% over-expression = I) | Target coverage, over-expression of source gene, BRCA [2]: I (<19% over-expression = I) | Target coverage, over-expression of source gene, CLL [2]: IV (>70% = IV) | Target coverage, over-expression of source gene, CRC [2]: I (<19% over-expression = I) | Target coverage, over-expression of source gene, GB [2]: I (<19% over-expression = I) | Target coverage, over-expression of source gene, HCC [2]: I (<19% over-expression = I) | Target coverage, over-expression of source gene, OC [2]: I (<19% over-expression = I) | Target coverage, over-expression of source gene, OSCAR [2]: I (<19% over-expression = I) | Target coverage, over-expression of source gene, PC [2]: I (<19% over-expression = I) | Target coverage, over-expression of source gene, RCC [2]: I (<19% over-expression = I) | Target coverage, over-expression of source gene, SCLC [2]: I (<19% over-expression = I) | Target coverage, over-expression of source gene, pNSCLC [2]: I (<19% over-expression = I)

190: peptide found in TET2 (gene looked up) (LYSELTETL; listed as Homo sapiens) [compound 190]
Peptide Presentation on cancer entities [1]: NSCLC | Target coverage, over-expression of source gene, AML [2]: IV (>70% = IV) | Target coverage, over-expression of source gene, BRCA [2]: III (50-69% = III) | Target coverage, over-expression of source gene, CLL [2]: IV (>70% = IV) | Target coverage, over-expression of source gene, CRC [2]: I (<19% over-expression = I) | Target coverage, over-expression of source gene, GB [2]: II (20-49% = II) | Target coverage, over-expression of source gene, HCC [2]: I (<19% over-expression = I) | Target coverage, over-expression of source gene, OC [2]: I (<19% over-expression = I) | Target coverage, over-expression of source gene, OSCAR [2]: I (<19% over-expression = I) | Target coverage, over-expression of source gene, PC [2]: II (20-49% = II) | Target coverage, over-expression of source gene, RCC [2]: I (<19% over-expression = I) | Target coverage, over-expression of source gene, SCLC [2]: IV (>70% = IV) | Target coverage, over-expression of source gene, pNSCLC [2]: IV (>70% = IV)
